Source: PubChem BioAssay AID328 (DTP/NCI, 2004)
The list does not hold the whole screen: it covers a few groups of compounds. Other doses and runs of a compound may be missing. T/C is the treated group as % of the vehicle group. For survival time, the PubChem record calls one and a half times the control and up active, and a quarter to a half above the control has no call in these data; cut-offs in other NCI protocols can differ. Some T/C values are marked as having no survivor count here; that says nothing about deaths at the dose. Schedule codes are those of the source, taken here to give the interval after Q, in days (D) or hours (H), and the number of doses after X. Some doses were run more than once; their values stand side by side, smallest first.

Tested on: BDF1 mice, P388 leukemia ip, median survival T/C
Experiment: NCI In Vivo Anticancer Drug Screen. Data for tumor model P388 Leukemia (intraperitoneal) in B6D2F1 (BDF1) mice
Conditions: T/C endpoint: median survival time, higher T/C = longer survival
In short: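 T/C = treated-group survival ÷ vehicle-control survival; tumour transplanted into mice before dosing.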

Cc1ccc(C(=O)O)cc1N(CCCl)CCCl
T/C (dose: 0.1 mg/kg/injection, schedule: Q01DX009 (ip), vehicle: Klucel (hydroxypropylcellulose) (HPC)): 100 % of control [survivor count not shown] | T/C (dose: 0.2 mg/kg/injection, schedule: Q01DX009 (ip), vehicle: Klucel (hydroxypropylcellulose) (HPC)): 110 % of control [survivor count not shown] | T/C (dose: 0.3 mg/kg/injection, schedule: Q01DX009 (ip), vehicle: Klucel (hydroxypropylcellulose) (HPC)): 130 % of control [survivor count not shown] | T/C (dose: 0.37 mg/kg/injection, schedule: Q01DX009 (ip), vehicle: Klucel (hydroxypropylcellulose) (HPC)): 119 % of control [survivor count not shown] | T/C (dose: 0.5 mg/kg/injection, schedule: Q01DX009 (ip), vehicle: Klucel (hydroxypropylcellulose) (HPC)): 134 % of control [survivor count not shown] | T/C (dose: 0.75 mg/kg/injection, schedule: Q01DX009 (ip), vehicle: Klucel (hydroxypropylcellulose) (HPC)): 130 [survivor count not shown] and 147 % of control [survivor count not shown] | T/C (dose: 1.1 mg/kg/injection, schedule: Q01DX009 (ip), vehicle: Klucel (hydroxypropylcellulose) (HPC)): 147 % of control [survivor count not shown] | T/C (dose: 1.5 mg/kg/injection, schedule: Q01DX009 (ip), vehicle: Klucel (hydroxypropylcellulose) (HPC)): 157 % of control [survivor count not shown] | T/C (dose: 1.5 mg/kg/injection, schedule: Q04DX003 (ip), vehicle: Klucel (hydroxypropylcellulose) (HPC)): 137 % of control [survivor count not shown] | T/C (dose: 1.7 mg/kg/injection, schedule: Q01DX009 (ip), vehicle: Klucel (hydroxypropylcellulose) (HPC)): 135 % of control [survivor count not shown] | T/C (dose: 2.6 mg/kg/injection, schedule: Q01DX009 (ip), vehicle: Klucel (hydroxypropylcellulose) (HPC)): 140 % of control [survivor count not shown] | T/C (dose: 3.0 mg/kg/injection, schedule: Q01DX009 (ip), vehicle: Klucel (hydroxypropylcellulose) (HPC)): 192 % of control [survivor count not shown] | T/C (dose: 3.0 mg/kg/injection, schedule: Q04DX003 (ip), vehicle: Klucel (hydroxypropylcellulose) (HPC)): 141 % of control [survivor count not shown] | T/C (dose: 4.0 mg/kg/injection, schedule: Q01DX009 (ip), vehicle: Klucel (hydroxypropylcellulose) (HPC)): 175 % of control [survivor count not shown] | T/C (dose: 4.4 mg/kg/injection, schedule: Q01DX009 (ip), vehicle: Klucel (hydroxypropylcellulose) (HPC)): 183 % of control [survivor count not shown] | T/C (dose: 6.0 mg/kg/injection, schedule: Q04DX003 (ip), vehicle: Klucel (hydroxypropylcellulose) (HPC)): 195 % of control [survivor count not shown] | T/C (dose: 6.3 mg/kg/injection, schedule: Q01DX009 (ip), vehicle: Klucel (hydroxypropylcellulose) (HPC)): 125 % of control [survivor count not shown] | T/C (dose: 6.6 mg/kg/injection, schedule: Q01DX009 (ip), vehicle: Klucel (hydroxypropylcellulose) (HPC)): 191 % of control [survivor count not shown] | T/C (dose: 8.0 mg/kg/injection, schedule: Q04DX003 (ip), vehicle: Klucel (hydroxypropylcellulose) (HPC)): 163 % of control [survivor count not shown] | T/C (dose: 12.0 mg/kg/injection, schedule: Q04DX003 (ip), vehicle: Klucel (hydroxypropylcellulose) (HPC)): 220 [survivor count not shown] and 250 % of control [survivor count not shown] | T/C (dose: 12.5 mg/kg/injection, schedule: Q04DX003 (ip), vehicle: Klucel (hydroxypropylcellulose) (HPC)): 213 [survivor count not shown] and 231 % of control [survivor count not shown] | T/C (dose: 18.0 mg/kg/injection, schedule: Q04DX003 (ip), vehicle: Klucel (hydroxypropylcellulose) (HPC)): 183 % of control [survivor count not shown] | T/C (dose: 25.0 mg/kg/injection, schedule: Q04DX003 (ip), vehicle: Klucel (hydroxypropylcellulose) (HPC)): 100 % of control [survivor count not shown]

COC(=O)CCc1ccc(CN(CCCl)CCCl)cc1
T/C (dose: 0.44 mg/kg/injection, schedule: Q01DX009 (ip), vehicle: saline): 108 % of control [survivor count not shown] | T/C (dose: 0.44 mg/kg/injection, schedule: Q04DX003 (ip), vehicle: saline): 109 % of control [survivor count not shown] | T/C (dose: 0.66 mg/kg/injection, schedule: Q01DX009 (ip), vehicle: saline): 141 % of control [survivor count not shown] | T/C (dose: 0.66 mg/kg/injection, schedule: Q04DX003 (ip), vehicle: saline): 118 % of control [survivor count not shown] | T/C (dose: 0.75 mg/kg/injection, schedule: Q01DX009 (ip), vehicle: saline): 95 [survivor count not shown] and 104 % of control [survivor count not shown] | T/C (dose: 1.0 mg/kg/injection, schedule: Q01DX009 (ip), vehicle: saline): 158 % of control [survivor count not shown] | T/C (dose: 1.0 mg/kg/injection, schedule: Q04DX003 (ip), vehicle: saline): 122 % of control [survivor count not shown] | T/C (dose: 1.46 mg/kg/injection, schedule: Q04DX003 (ip), vehicle: saline): 140 % of control [survivor count not shown] | T/C (dose: 1.5 mg/kg/injection, schedule: Q01DX009 (ip), vehicle: saline): 131 [survivor count not shown], 139 [survivor count not shown], 181 % of control [survivor count not shown] | T/C (dose: 1.5 mg/kg/injection, schedule: Q04DX003 (ip), vehicle: saline): 150 % of control [survivor count not shown] | T/C (dose: 2.2 mg/kg/injection, schedule: Q04DX003 (ip), vehicle: saline): 154 % of control [survivor count not shown] | T/C (dose: 3.0 mg/kg/injection, schedule: Q01DX009 (ip), vehicle: saline): 150 [survivor count not shown] and 200 % of control [survivor count not shown] | T/C (dose: 3.3 mg/kg/injection, schedule: Q04DX003 (ip), vehicle: saline): 163 % of control [survivor count not shown] | T/C (dose: 5.0 mg/kg/injection, schedule: Q04DX003 (ip), vehicle: saline): 200 % of control [survivor count not shown]

O=C(O)CCOc1ccccc1N(CCCl)CCCl
T/C (dose: 6.25 mg/kg/injection, schedule: Q01DX009 (ip), vehicle: saline with Tween-80): 145 % of control [survivor count not shown] | T/C (dose: 8.0 mg/kg/injection, schedule: Q01DX009 (ip), vehicle: saline): 157 % of control [survivor count not shown] | T/C (dose: 12.0 mg/kg/injection, schedule: Q01DX009 (ip), vehicle: saline): 146 % of control [survivor count not shown] | T/C (dose: 12.5 mg/kg/injection, schedule: Q01DX009 (ip), vehicle: saline with Tween-80): 181 % of control [survivor count not shown] | T/C (dose: 18.0 mg/kg/injection, schedule: Q01DX009 (ip), vehicle: saline): 150 % of control [survivor count not shown] | T/C (dose: 25.0 mg/kg/injection, schedule: Q01DX009 (ip), vehicle: saline with Tween-80): 177 % of control [survivor count not shown]
